# Experimental data taken from patent publication US20090074785A1, “Compositions and methods for treatment of colorectal cancer” (priority 2007, published 2009).
# For some assays here: For at least one compound, name, drawing or mass did not settle the structure. Some results were stated once for a whole list of compounds, not compound by compound.
# Columns and labels:
# Format in all cases: cell-based, human
# IBABP = assay: Regulation of expression of IBABP in Caco-2 cells, quantitative RT-PCR; conditions: 100 μM, 24 h, normalized to ARPP0
# Description: (§1) The expression of IBABP-L and IBABP was measured by quantitative RT-PCR. The mRNA copy number of each variant is normalized to the expression the housekeeping gene ARPP0. Values in the figure represent the average of three experiments with each replicate performed in duplicate.
# (§2) To determine the relative expression levels of IBABP-L and IBABP, a two-step quantitative RT-PCR procedure was used. In the first step, complementary DNA (cDNA) was synthesized from total RNA. […] In the second step, quantitative PCR (QPCR) was carried out on a Mx 3000P Real-Time PCR System (Stratagene, La Jolla, Calif.) using a solution containing diluted cDNA (1:20; 2.0 μl), 1×SYBR Green PCR Master Mix (Applied Biosystems, Foster City, Calif.), and primers for IBABP-L, IBABP, or ARPP0 (0.25 μM). […]
# (§3) Regulation of expression of the IBABP variants in Caco-2 cells. […] Cells were harvested, cellular RNA was isolated using the RNeasy Mini Kit (Qiagen) according to manufacturer instruction, and expression of IBABP variants was determined by QPCR as described above.
# (§4) Bile acids differentially regulate the variants of IBABP. […] Caco-2 cells were treated with either chenodeoxycholic acid (CDCA), deoxycholic acid (DCA), or 9cRA, and the relative expression of transcripts encoding IBABP-L and IBABP was measured by quantitative RT-PCR (FIG. 10).
# IBABP-L = assay: Regulation of expression of IBABP-L in Caco-2 cells, quantitative RT-PCR; conditions: 100 μM, 24 h, normalized to ARPP0
# Description: as §1, §2, §3, §4
# HCT116 cells = assay: Apoptosis of HCT116 cells, Cell Death Detection ELISAplus kit (DNA fragmentation)
Structure (SMILES),increase in expression of IBABP (IBABP),effect on expression of IBABP-L (IBABP-L),"apoptosis / survival of untransfected cells treated with DCA (HCT116 cells; 200 uM deoxycholic acid, 24 hr)","cell death induced by DCA in HCT116 cells (HCT116 cells; DCA 100 μM, no knockdown)"
"C[C@H](CCC(=O)O)[C@H]1CC[C@H]2[C@@H]3[C@H](O)C[C@@H]4C[C@H](O)CC[C@]4(C)[C@H]3CC[C@]12C [CDCA, chenodeoxycholic acid]",up to 13 fold,,,
"C[C@H](CCC(=O)O)[C@H]1CC[C@H]2[C@@H]3CC[C@@H]4C[C@H](O)CC[C@]4(C)[C@H]3C[C@H](O)[C@]12C [DCA, deoxycholic acid]",up to 13 fold,without effect,very little apoptosis,resistant to cell death
